At least one structure is not confirmed: it was looked up by name or label, or the drawing left a doubt.
Columns and labels:
Assay type in all cases: in vivo
[1] = system: C57BL/6 male mice aged 106 weeks; experiment: Frailty Index (31 phenotypes, each scored 0, 0.5 or 1); conditions: antibody once IV, rapamycin 42 ppm
[2] = system: C57BL/6 male mice aged 106 weeks; experiment: Open Field Test (locomotor activity); conditions: compared to the control group, FIG. 7
[3] = system: male C57BL/6J mice aged 10 months; experiment: Biological age (physiological frailty index from blood count) in mice after anti-Target antibody injection; conditions: two weeks after the treatment; antibodies 10 mg/kg IV, rapamycin 10 mg/kg i.p. every other day; compared to vehicle control; FIG. 3

## CO[C@H]1C[C@@H]2CC[C@@H](C)[C@@](O)(O2)C(=O)C(=O)N2CCCC[C@H]2C(=O)O[C@H]([C@H](C)C[C@@H]2CC[C@@H](O)[C@H](OC)C2)CC(=O)[C@H](C)/C=C(\C)[C@@H](O)[C@@H](OC)C(=O)[C@H](C)C[C@H](C)/C=C/C=C/C=C/1C [rapamycin]
[1]; FIG. 5
  Frailty Index: significant reduction
[1]; FIG. 6
  severity of piloerection and poor coat condition phenotypes: significantly reduced
[2]; 4 weeks after the start of rapamycin treatment (baseline)
  motor function (Open Field: total distance traveled, velocity): significant improvement in motor function
[2]; 7 weeks after the start of rapamycin treatment (baseline)
  motor function (Open Field: total distance traveled, velocity): significant improvement in motor function
[3]
  biological age: decreased
